Article doi:10.1101/2021.03.02.433619
No constants are given. Whether binding was seen depends on the method and setting. In cells and extracts the contact can be indirect. Some entries that bind do so weakly or less than the wild type. Where a sequence is shown, tags or fusion partners need not be part of it.

Target: T1, Flag-tagged human FAM57B (human) (UniProt Q71RH2)
T1 sequence: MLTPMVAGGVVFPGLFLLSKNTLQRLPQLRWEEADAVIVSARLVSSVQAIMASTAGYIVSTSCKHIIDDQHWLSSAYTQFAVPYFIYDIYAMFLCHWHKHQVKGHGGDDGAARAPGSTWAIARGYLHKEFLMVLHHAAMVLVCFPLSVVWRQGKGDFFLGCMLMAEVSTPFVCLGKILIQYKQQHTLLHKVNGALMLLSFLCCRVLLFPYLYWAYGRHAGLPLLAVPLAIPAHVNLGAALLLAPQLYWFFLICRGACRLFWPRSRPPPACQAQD
Test: co-IP

B1: HA-tagged human CerS2 (enzyme, UniProt Q96G23 1-380)
chain: MLQTLYDYFWWERLWLPVNLTWADLEDRDGRVYAKASDLYITLPLALLFLIVRYFFELYVATPLAALLNIKEKTRLRAPPNATLEHFYLTSGKQPKQVEVELLSRQSGLSGRQVERWFRRRRNQDRPSLLKKFREASWRFTFYLIAFIAGMAVIVDKPWFYDMKKVWEGYPIQSTIPSQYWYYMIELSFYWSLLFSIASDVKRKDFKEQIIHHVATIILISFSWFANYIRAGTLIMALHDSSDYLLESAKMFNYAGWKNTCNNIFIVFAIVFIITRLVILPFWILHCTLVYPLELYPAFFGYYFFNSMMGVLQLLHIFWAYLILRMAHKFITGKLVEDERSDREETESSEGEEAAAGGGAKSRPLANGHPILNNNHRKND
binding: binds

B2: HA-tagged human CerS5 (enzyme, UniProt Q8N5B7 1-392)
chain: MATAAQGPLSLLWGWLWSERFWLPENVSWADLEGPADGYGYPRGRHILSVFPLAAGIFFVRLLFERFIAKPCALCIGIEDSGPYQAQPNAILEKVFISITKYPDKKRLEGLSKQLDWNVRKIQCWFRHRRNQDKPPTLTKFCESMWRFTFYLCIFCYGIRFLWSSPWFWDIRQCWHNYPFQPLSSGLYHYYIMELAFYWSLMFSQFTDIKRKDFLIMFVHHLVTIGLISFSYINNMVRVGTLIMCLHDVSDFLLEAAKLANYAKYQRLCDTLFVIFSAVFMVTRLGIYPFWILNTTLFESWEIIGPYASWWLLNGLLLTLQLLHVIWSYLIARIALKALIRGKVSKDDRSDVESSSEEEDVTTCTKSPCDSSSSNGANRVNGHMGGSYWAEE
binding: binds

B3: HA-tagged human CerS6 (enzyme, UniProt Q6ZMG9 1-384)
chain: MAGILAWFWNERFWLPHNVTWADLKNTEEATFPQAEDLYLAFPLAFCIFMVRLIFERFVAKPCAIALNIQANGPQIAPPNAILEKVFTAITKHPDEKRLEGLSKQLDWDVRSIQRWFRQRRNQEKPSTLTRFCESMWRFSFYLYVFTYGVRFLKKTPWLWNTRHCWYNYPYQPLTTDLHYYYILELSFYWSLMFSQFTDIKRKDFGIMFLHHLVSIFLITFSYVNNMARVGTLVLCLHDSADALLEAAKMANYAKFQKMCDLLFVMFAVVFITTRLGIFPLWVLNTTLFESWEIVGPYPSWWVFNLLLLLVQGLNCFWSYLIVKIACKAVSRGKVSKDDRSDIESSSDEEDSEPPGKNPHTATTTNGTSGTNGYLLTGSCSMDD
binding: binds
